# The other results are listed elsewhere or left out.
# Tests used:
# Assay in all cases: glycan array binding signal (z-score within array); higher = stronger binding
# Details in all cases: glycan notation: IUPAC condensed, linker removed
# [1] = target: Gal(b1-4)GlcNAc(b1-3)Gal(b1-3)GlcNAc
# Procedure, shortened: (§1)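 Columns mapping to the same glycan were averaged after glycan names were converted to IUPAC-condensed notation. The data come from 3228 arrays in the Consortium for Functional Glycomics database, limited to those with an available protein sequence. Binding is reported as a within-array Z-score averaged across arrays of one protein sequence and across linkers.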
# [2] = target: Gal(b1-4)GlcNAc(b1-3)Gal(b1-4)Glc
# Procedure, shortened: as §1
# [3] = target: Gal(b1-4)GlcNAc(b1-3)Gal(b1-4)GlcNAc
# Procedure, shortened: as §1
# [4] = target: Gal(b1-4)GlcNAc(b1-3)Gal(b1-4)GlcNAc(b1-2)Man(a1-3)[Gal(b1-4)GlcNAc(b1-3)Gal(b1-4)GlcNAc(b1-2)Man(a1-6)]Man(b1-4)GlcNAc(b1-4)GlcNAc
# Procedure, shortened: as §1
# [5] = target: Gal(b1-4)GlcNAc(b1-3)Gal(b1-4)GlcNAc(b1-2)Man(a1-3)[Gal(b1-4)GlcNAc(b1-3)Gal(b1-4)GlcNAc(b1-2)Man(a1-6)]Man(b1-4)GlcNAc(b1-4)[Fuc(a1-6)]GlcNAc
# Procedure, shortened: as §1
# [6] = target: Gal(b1-4)GlcNAc(b1-3)Gal(b1-4)GlcNAc(b1-2)[Gal(b1-4)GlcNAc(b1-3)Gal(b1-4)GlcNAc(b1-6)]Man(a1-6)[Gal(b1-4)GlcNAc(b1-3)Gal(b1-4)GlcNAc(b1-2)Man(a1-3)]Man(b1-4)GlcNAc(b1-4)GlcNAc
# Procedure, shortened: as §1
# [7] = target: Gal(b1-4)GlcNAc(b1-3)Gal(b1-4)GlcNAc(b1-2)[Gal(b1-4)GlcNAc(b1-3)Gal(b1-4)GlcNAc(b1-6)]Man(a1-6)[Gal(b1-4)GlcNAc(b1-3)Gal(b1-4)GlcNAc(b1-2)Man(a1-3)]Man(b1-4)GlcNAc(b1-4)[Fuc(a1-6)]GlcNAc
# Procedure, shortened: as §1
# [8] = target: Gal(b1-4)GlcNAc(b1-3)Gal(b1-4)GlcNAc(b1-3)Gal(b1-4)GlcNAc
# Procedure, shortened: as §1
# [9] = target: Gal(b1-4)GlcNAc(b1-3)Gal(b1-4)GlcNAc(b1-3)Gal(b1-4)GlcNAc(b1-2)Man(a1-3)[Gal(b1-4)GlcNAc(b1-3)Gal(b1-4)GlcNAc(b1-3)Gal(b1-4)GlcNAc(b1-2)Man(a1-6)]Man(b1-4)GlcNAc(b1-4)GlcNAc
# Procedure, shortened: as §1
# [10] = target: Gal(b1-4)GlcNAc(b1-3)Gal(b1-4)GlcNAc(b1-3)Gal(b1-4)GlcNAc(b1-2)Man(a1-3)[Gal(b1-4)GlcNAc(b1-3)Gal(b1-4)GlcNAc(b1-3)Gal(b1-4)GlcNAc(b1-2)Man(a1-6)]Man(b1-4)GlcNAc(b1-4)[Fuc(a1-6)]GlcNAc
# Procedure, shortened: as §1
# [11] = target: Gal(b1-4)GlcNAc(b1-3)Gal(b1-4)GlcNAc(b1-3)Gal(b1-4)GlcNAc(b1-2)[Gal(b1-4)GlcNAc(b1-3)Gal(b1-4)GlcNAc(b1-3)Gal(b1-4)GlcNAc(b1-6)]Man(a1-6)[Gal(b1-4)GlcNAc(b1-3)Gal(b1-4)GlcNAc(b1-3)Gal(b1-4)GlcNAc(b1-2)Man(a1-3)]Man(b1-4)GlcNAc(b1-4)[Fuc(a1-6)]GlcNAc
# Procedure, shortened: as §1
# [12] = target: Gal(b1-4)GlcNAc(b1-3)Gal(b1-4)GlcNAc(b1-3)Gal(b1-4)GlcNAc(b1-3)Gal(b1-4)GlcNAc(b1-2)Man(a1-3)[Gal(b1-4)GlcNAc(b1-3)Gal(b1-4)GlcNAc(b1-3)Gal(b1-4)GlcNAc(b1-3)Gal(b1-4)GlcNAc(b1-2)Man(a1-6)]Man(b1-4)GlcNAc(b1-4)GlcNAc
# Procedure, shortened: as §1
# [13] = target: Gal(b1-4)GlcNAc(b1-3)Gal(b1-4)GlcNAc(b1-3)Gal(b1-4)GlcNAc(b1-3)Gal(b1-4)GlcNAc(b1-2)Man(a1-3)[Gal(b1-4)GlcNAc(b1-3)Gal(b1-4)GlcNAc(b1-3)Gal(b1-4)GlcNAc(b1-3)Gal(b1-4)GlcNAc(b1-2)Man(a1-6)]Man(b1-4)GlcNAc(b1-4)[Fuc(a1-6)]GlcNAc
# Procedure, shortened: as §1
# [14] = target: Gal(b1-4)GlcNAc(b1-3)Gal(b1-4)GlcNAc(b1-3)Gal(b1-4)GlcNAc(b1-3)Gal(b1-4)GlcNAc(b1-2)[Gal(b1-4)GlcNAc(b1-3)Gal(b1-4)GlcNAc(b1-3)Gal(b1-4)GlcNAc(b1-3)Gal(b1-4)GlcNAc(b1-6)]Man(a1-6)[Gal(b1-4)GlcNAc(b1-3)Gal(b1-4)GlcNAc(b1-3)Gal(b1-4)GlcNAc(b1-3)Gal(b1-4)GlcNAc(b1-2)Man(a1-3)]Man(b1-4)GlcNAc(b1-4)[Fuc(a1-6)]GlcNAc
# Procedure, shortened: as §1
# [15] = target: Gal(b1-4)GlcNAc(b1-3)Gal(b1-4)GlcNAc(b1-3)Gal(b1-4)GlcNAc(b1-3)Gal(b1-4)GlcNAc(b1-3)Gal(b1-4)GlcNAc(b1-2)Man(a1-3)[Gal(b1-4)GlcNAc(b1-3)Gal(b1-4)GlcNAc(b1-3)Gal(b1-4)GlcNAc(b1-3)Gal(b1-4)GlcNAc(b1-3)Gal(b1-4)GlcNAc(b1-2)Man(a1-6)]Man(b1-4)GlcNAc(b1-4)GlcNAc
# Procedure, shortened: as §1
# [16] = target: Gal(b1-4)GlcNAc(b1-3)Gal(b1-4)GlcNAc(b1-3)Gal(b1-4)GlcNAc(b1-3)Gal(b1-4)GlcNAc(b1-3)Gal(b1-4)GlcNAc(b1-2)Man(a1-3)[Gal(b1-4)GlcNAc(b1-3)Gal(b1-4)GlcNAc(b1-3)Gal(b1-4)GlcNAc(b1-3)Gal(b1-4)GlcNAc(b1-3)Gal(b1-4)GlcNAc(b1-2)Man(a1-6)]Man(b1-4)GlcNAc(b1-4)[Fuc(a1-6)]GlcNAc
# Procedure, shortened: as §1
# [17] = target: Gal(b1-4)GlcNAc(b1-3)Gal(b1-4)GlcNAc(b1-3)Gal(b1-4)GlcNAc(b1-3)Gal(b1-4)GlcNAc(b1-3)Gal(b1-4)GlcNAc(b1-2)[Gal(b1-4)GlcNAc(b1-3)Gal(b1-4)GlcNAc(b1-3)Gal(b1-4)GlcNAc(b1-3)Gal(b1-4)GlcNAc(b1-3)Gal(b1-4)GlcNAc(b1-6)]Man(a1-6)[Gal(b1-4)GlcNAc(b1-3)Gal(b1-4)GlcNAc(b1-3)Gal(b1-4)GlcNAc(b1-3)Gal(b1-4)GlcNAc(b1-3)Gal(b1-4)GlcNAc(b1-2)Man(a1-3)]Man(b1-4)GlcNAc(b1-4)[Fuc(a1-6)]GlcNAc
# Procedure, shortened: as §1
# [18] = target: Gal(b1-4)GlcNAc(b1-3)Gal(b1-4)GlcNAc(b1-3)Gal(b1-4)GlcNAc(b1-3)Gal(b1-4)GlcNAc(b1-3)Gal(b1-4)GlcNAc(b1-3)Gal(b1-4)GlcNAc(b1-2)Man(a1-3)[Gal(b1-4)GlcNAc(b1-3)Gal(b1-4)GlcNAc(b1-3)Gal(b1-4)GlcNAc(b1-3)Gal(b1-4)GlcNAc(b1-3)Gal(b1-4)GlcNAc(b1-3)Gal(b1-4)GlcNAc(b1-2)Man(a1-6)]Man(b1-4)GlcNAc(b1-4)GlcNAc
# Procedure, shortened: as §1
# [19] = target: Gal(b1-4)GlcNAc(b1-3)Gal(b1-4)GlcNAc(b1-3)GalNAc
# Procedure, shortened: as §1
binder,measurement,setting,value
SabA (Helicobacter pylori) (protein) MGSSHHHHHHSSGLVPRGSHMENLYFQGEDNGFFVSAGYQIGEAVQMVKNTGELKNLNEKYEQLSQYLNQVASLKQSIQNANNIELVNSSLNYLKSFTNNNYNSTTQSPIFNAVQAVITSVLGFWSLYAGNYFTFFVGKKVGDSGQPASVQGNPPFKTIIENCSGIENCAMDQTTYDKMKKLAEDLQAAQTNSATKGNNLCALSGCAATDSTSNPPNSTVSNALNLAQQLMDLIANTKTAMMWKNIVISGVSNTSGAITSTNYPTQYAVFNNIKAMIPILQQAVTLSQSNHTLSASLQAQATGSQTNPKFAKDIYTFAQNQKQVISYAQDIFNLFNSIPAEQYKYLEKAYLKIPNAGSTPTNPYRQVVNLNQEVQTIKNNVSYYGNRVDAALSVARDVYNLKSNQAEIVTAYNDAKTLSEEISKLPHNQVNTKDIVTLPYDKNAPAAGQSNYQINPEQQSNLNQALAAMSNNPFKKVGMISSQNNNGA,glycan array binding signal (z-score),[1],-0.645
same,glycan array binding signal (z-score),[2],1.15
same,glycan array binding signal (z-score),[3],-0.924
same,glycan array binding signal (z-score),[4],0.895
same,glycan array binding signal (z-score),[5],1.16
same,glycan array binding signal (z-score),[6],2.39
same,glycan array binding signal (z-score),[7],-0.252
same,glycan array binding signal (z-score),[8],-0.068
same,glycan array binding signal (z-score),[9],1.21
same,glycan array binding signal (z-score),[10],-0.537
same,glycan array binding signal (z-score),[11],0.386
same,glycan array binding signal (z-score),[12],-0.485
same,glycan array binding signal (z-score),[13],0.132
same,glycan array binding signal (z-score),[14],-0.093
same,glycan array binding signal (z-score),[15],0.398
same,glycan array binding signal (z-score),[16],0.033
same,glycan array binding signal (z-score),[17],-0.103
same,glycan array binding signal (z-score),[18],0.175
same,glycan array binding signal (z-score),[19],0.108

# From the supplement of paper PMC8728848
